Reference: paper PMC3510486, “The structural basis for the interaction between the CAF1 nuclease and the NOT1 scaffold of the human CCR4–NOT deadenylase complex” (Nucleic Acids Research, 2012)
Results are given in words; binding and its absence hold for the method and conditions named. Binding seen in cells or lysates may run through a third protein. Some entries that bind do so weakly or less than the wild type.

Chains of the proteins cited; added tags and fusions are not shown. Lines headed by an entry give the natural chain unless they say otherwise; changes in a name come on top. A line that says so, or that is headed by a name, gives the form on record, which may keep a tag or linker. Residues count along the entry.
UniProt A5YKK6: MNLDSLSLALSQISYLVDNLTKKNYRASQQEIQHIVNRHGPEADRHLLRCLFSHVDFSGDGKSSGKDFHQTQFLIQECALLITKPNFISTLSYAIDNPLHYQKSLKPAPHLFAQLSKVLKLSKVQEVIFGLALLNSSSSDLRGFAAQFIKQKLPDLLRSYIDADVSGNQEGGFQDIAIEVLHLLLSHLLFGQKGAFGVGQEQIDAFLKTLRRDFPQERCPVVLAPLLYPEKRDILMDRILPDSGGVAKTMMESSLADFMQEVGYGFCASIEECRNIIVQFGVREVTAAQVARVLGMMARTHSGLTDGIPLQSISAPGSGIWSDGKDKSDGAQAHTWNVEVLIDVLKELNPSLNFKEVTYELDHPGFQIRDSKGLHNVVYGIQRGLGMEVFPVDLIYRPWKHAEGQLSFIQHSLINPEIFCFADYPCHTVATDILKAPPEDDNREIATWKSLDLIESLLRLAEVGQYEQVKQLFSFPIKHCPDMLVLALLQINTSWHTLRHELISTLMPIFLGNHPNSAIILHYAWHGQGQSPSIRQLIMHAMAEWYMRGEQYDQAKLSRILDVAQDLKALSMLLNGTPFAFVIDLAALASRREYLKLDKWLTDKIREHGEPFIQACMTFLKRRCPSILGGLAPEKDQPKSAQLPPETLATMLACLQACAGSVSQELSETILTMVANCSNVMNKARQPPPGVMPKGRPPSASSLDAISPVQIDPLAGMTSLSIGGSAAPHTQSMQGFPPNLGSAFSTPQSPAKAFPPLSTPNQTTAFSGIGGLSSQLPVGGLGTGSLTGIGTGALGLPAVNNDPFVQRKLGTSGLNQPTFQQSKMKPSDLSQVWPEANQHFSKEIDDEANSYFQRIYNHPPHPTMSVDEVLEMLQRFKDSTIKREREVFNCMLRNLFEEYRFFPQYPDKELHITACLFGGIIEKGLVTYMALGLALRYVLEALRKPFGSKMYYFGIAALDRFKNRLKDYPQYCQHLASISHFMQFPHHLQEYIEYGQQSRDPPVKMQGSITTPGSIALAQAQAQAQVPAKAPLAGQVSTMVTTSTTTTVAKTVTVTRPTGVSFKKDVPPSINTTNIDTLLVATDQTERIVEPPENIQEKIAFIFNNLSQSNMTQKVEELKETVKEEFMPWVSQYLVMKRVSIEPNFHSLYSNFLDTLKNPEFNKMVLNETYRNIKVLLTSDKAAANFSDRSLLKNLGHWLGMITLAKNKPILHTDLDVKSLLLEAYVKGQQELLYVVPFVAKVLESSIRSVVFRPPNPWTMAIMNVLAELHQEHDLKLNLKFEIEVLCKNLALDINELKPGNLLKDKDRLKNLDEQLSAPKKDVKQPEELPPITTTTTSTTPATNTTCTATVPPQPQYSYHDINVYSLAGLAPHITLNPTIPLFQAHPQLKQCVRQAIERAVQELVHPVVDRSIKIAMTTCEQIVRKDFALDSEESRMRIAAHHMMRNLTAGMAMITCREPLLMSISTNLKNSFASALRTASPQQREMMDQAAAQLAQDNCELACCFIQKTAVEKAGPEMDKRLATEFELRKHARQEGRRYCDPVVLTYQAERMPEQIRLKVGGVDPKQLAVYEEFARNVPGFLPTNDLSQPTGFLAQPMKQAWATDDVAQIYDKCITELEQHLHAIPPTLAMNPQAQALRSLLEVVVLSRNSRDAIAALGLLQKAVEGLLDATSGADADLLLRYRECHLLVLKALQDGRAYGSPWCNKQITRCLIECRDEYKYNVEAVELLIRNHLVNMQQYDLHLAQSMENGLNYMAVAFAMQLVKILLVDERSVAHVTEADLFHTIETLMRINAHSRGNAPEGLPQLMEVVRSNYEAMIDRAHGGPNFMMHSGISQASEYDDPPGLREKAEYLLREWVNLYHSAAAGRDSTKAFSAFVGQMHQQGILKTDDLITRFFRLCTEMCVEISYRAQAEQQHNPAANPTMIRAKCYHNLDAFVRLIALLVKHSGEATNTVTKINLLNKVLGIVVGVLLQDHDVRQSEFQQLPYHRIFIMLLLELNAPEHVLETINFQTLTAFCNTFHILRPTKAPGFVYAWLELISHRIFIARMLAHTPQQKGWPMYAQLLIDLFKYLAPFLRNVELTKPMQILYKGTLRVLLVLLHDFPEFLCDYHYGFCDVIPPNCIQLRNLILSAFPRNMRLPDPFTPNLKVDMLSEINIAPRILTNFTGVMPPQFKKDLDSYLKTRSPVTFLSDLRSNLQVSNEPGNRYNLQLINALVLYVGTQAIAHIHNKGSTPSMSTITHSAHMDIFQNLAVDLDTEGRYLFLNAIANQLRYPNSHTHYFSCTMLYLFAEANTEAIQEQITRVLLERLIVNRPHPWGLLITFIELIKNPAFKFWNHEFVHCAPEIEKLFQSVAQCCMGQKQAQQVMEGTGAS
MBP-tagged HsNOT1 middle domain (amino acids 1085-1605): residues 1085-1605 of A5YKK6
UniProt Q9UFF9: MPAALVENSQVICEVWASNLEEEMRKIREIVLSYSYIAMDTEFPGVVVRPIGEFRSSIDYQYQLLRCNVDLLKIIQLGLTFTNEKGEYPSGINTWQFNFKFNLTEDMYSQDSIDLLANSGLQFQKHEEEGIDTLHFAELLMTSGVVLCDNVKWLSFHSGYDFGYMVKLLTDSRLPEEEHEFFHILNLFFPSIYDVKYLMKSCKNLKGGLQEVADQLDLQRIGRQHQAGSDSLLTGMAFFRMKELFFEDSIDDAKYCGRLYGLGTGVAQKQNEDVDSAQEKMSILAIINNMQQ

Legend:
[1] = target: GFP-tagged human NOT1, full-length (human) (UniProt A5YKK6); assay: co-IP; HEK293T cells co-transfected with GFP- and HA-tagged proteins; RIPA lysate treated with RNase A; polyclonal anti-GFP antibody and GammaBind G Sepharose, 4°C; western blotting
[2] = target: GST-tagged Hs POP2 (human) (UniProt Q9UFF9); assay: pull-down; cleared E. coli lysates mixed at about 1:1; GST-tagged protein held on glutathione agarose; 10 mM HEPES pH 7.6, 150 mM NaCl, 0.2% Triton X-100, 1 mM DTT, 4°C; SDS-PAGE, coomassie

Substance | binding [1] | binding [2]
HA-tagged human POP2 (from UniProt Q9UFF9 1-292) (enzyme) | binds | –
MBP-tagged HsNOT1 middle domain (amino acids 1085-1605) (from UniProt A5YKK6-1 1085-1605) (domain or fragment) | – | binds
